Measured values taken from the supplement of paper PMC10849652.
The list shows a part of the results.

The chains behind the UniProt entries cited, without tags or fusion partners. Where a name states a change or a piece, a line headed by the entry shows the natural chain unless it says otherwise.
UniProt Q9HD42: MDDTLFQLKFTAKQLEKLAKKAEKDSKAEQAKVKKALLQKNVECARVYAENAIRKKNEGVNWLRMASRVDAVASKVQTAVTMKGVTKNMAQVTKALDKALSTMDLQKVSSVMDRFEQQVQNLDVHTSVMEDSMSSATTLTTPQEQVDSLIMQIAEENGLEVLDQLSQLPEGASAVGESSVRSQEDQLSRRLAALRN
UniProt Q8IY22: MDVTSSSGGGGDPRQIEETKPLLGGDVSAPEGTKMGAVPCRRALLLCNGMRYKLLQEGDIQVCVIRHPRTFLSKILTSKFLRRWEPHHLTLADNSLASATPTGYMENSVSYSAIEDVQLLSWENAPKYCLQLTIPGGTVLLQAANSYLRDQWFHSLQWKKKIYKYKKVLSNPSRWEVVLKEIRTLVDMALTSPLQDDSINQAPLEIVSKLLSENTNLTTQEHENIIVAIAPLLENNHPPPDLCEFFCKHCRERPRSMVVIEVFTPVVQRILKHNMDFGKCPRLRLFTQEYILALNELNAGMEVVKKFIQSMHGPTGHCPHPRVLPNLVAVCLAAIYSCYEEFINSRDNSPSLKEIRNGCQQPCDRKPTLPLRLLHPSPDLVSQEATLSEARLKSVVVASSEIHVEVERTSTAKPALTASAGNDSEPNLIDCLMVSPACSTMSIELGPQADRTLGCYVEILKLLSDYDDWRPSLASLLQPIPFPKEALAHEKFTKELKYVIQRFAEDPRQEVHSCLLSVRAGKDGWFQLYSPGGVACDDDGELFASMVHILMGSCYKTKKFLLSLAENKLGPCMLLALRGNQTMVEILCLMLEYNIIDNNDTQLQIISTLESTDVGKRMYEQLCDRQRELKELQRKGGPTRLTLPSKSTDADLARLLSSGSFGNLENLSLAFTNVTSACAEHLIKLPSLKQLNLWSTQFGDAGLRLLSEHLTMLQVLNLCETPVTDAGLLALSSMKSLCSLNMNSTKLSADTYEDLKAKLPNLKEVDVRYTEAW
UniProt Q99653: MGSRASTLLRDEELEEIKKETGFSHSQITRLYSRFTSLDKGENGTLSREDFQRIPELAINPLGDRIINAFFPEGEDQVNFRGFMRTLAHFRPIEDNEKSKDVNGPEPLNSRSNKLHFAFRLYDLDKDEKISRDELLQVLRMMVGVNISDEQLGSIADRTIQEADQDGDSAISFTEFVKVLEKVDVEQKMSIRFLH
UniProt P35790, whole entry, looked up: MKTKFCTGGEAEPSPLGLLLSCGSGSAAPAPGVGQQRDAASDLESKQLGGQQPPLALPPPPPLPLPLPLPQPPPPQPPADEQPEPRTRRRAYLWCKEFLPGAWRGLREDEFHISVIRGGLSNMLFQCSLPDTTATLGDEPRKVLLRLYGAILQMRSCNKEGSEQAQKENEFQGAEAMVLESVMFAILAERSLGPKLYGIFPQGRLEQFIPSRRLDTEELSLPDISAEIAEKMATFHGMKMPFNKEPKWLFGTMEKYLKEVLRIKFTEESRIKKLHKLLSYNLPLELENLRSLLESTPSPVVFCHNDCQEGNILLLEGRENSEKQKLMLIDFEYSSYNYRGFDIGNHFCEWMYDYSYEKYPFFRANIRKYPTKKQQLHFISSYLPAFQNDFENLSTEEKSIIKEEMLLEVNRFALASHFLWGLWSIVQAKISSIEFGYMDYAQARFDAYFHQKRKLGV
UniProt I3L2J0: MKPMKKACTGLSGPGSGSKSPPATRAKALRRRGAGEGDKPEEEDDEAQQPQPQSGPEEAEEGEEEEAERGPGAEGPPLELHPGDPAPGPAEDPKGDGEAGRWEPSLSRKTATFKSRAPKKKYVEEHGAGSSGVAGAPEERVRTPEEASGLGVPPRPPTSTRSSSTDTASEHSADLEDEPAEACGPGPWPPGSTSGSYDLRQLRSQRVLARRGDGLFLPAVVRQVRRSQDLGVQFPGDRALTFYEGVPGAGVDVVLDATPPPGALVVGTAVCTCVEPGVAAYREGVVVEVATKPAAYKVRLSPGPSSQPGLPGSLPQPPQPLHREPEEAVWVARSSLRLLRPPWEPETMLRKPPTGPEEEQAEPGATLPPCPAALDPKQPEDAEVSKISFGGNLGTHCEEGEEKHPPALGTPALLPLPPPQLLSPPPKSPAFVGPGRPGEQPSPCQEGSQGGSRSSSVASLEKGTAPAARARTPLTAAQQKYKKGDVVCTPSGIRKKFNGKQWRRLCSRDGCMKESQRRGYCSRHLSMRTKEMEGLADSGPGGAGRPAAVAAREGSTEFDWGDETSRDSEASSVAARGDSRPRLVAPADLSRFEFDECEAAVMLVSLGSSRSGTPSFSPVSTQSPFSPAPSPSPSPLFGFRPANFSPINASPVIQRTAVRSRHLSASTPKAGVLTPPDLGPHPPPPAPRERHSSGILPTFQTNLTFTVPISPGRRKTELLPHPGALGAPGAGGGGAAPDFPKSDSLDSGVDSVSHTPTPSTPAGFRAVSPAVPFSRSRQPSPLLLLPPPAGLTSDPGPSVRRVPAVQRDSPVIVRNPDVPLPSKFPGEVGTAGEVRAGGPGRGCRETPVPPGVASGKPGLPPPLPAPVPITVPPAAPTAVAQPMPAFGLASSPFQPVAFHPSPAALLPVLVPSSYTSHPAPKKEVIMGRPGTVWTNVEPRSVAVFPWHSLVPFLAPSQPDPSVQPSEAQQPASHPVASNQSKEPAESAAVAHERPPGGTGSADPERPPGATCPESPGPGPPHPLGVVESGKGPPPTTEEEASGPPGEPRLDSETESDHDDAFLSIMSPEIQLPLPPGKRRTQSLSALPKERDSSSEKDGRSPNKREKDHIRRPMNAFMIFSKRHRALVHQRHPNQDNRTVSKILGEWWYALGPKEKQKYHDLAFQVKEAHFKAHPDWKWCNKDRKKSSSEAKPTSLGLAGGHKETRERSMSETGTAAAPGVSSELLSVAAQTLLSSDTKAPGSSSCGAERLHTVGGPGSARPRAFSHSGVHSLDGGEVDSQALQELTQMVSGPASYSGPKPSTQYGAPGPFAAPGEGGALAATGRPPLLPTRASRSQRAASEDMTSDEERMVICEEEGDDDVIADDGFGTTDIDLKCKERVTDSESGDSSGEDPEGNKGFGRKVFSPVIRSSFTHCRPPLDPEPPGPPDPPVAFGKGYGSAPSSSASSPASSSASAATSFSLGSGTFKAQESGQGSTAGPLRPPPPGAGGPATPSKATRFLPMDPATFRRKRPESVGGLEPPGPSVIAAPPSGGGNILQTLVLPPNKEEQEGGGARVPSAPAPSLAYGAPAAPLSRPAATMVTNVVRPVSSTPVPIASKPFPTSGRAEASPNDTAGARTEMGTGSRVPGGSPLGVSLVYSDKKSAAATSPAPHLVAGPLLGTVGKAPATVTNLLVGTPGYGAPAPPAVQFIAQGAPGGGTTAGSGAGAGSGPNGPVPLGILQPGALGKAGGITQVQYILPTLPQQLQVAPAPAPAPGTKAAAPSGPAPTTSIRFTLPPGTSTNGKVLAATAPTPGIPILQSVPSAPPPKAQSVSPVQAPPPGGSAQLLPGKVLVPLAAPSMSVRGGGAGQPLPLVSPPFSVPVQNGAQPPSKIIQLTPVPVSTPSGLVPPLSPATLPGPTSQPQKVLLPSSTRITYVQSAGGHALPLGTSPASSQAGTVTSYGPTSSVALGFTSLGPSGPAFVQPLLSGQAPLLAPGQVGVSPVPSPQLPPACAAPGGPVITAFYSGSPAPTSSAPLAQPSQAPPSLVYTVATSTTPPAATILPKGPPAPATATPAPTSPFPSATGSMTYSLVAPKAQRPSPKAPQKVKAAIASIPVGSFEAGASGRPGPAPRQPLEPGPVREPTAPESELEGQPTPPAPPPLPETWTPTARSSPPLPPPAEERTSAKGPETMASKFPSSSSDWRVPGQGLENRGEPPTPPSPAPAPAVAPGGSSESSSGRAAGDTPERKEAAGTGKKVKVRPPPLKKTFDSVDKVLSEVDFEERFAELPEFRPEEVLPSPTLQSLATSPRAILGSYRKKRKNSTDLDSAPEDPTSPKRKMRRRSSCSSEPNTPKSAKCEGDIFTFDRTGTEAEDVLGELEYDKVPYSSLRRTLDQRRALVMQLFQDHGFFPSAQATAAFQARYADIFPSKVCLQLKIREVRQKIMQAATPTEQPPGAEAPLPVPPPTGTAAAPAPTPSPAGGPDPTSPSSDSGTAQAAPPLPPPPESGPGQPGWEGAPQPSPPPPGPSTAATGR
UniProt Q6FI81: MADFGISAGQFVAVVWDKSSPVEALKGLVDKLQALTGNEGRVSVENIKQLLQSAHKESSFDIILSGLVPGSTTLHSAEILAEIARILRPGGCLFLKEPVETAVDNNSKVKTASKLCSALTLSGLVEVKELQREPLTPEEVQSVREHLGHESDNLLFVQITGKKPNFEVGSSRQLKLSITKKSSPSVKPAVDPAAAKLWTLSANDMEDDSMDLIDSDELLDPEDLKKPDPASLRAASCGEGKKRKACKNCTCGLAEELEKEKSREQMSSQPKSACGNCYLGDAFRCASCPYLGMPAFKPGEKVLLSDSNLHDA
UniProt P06732: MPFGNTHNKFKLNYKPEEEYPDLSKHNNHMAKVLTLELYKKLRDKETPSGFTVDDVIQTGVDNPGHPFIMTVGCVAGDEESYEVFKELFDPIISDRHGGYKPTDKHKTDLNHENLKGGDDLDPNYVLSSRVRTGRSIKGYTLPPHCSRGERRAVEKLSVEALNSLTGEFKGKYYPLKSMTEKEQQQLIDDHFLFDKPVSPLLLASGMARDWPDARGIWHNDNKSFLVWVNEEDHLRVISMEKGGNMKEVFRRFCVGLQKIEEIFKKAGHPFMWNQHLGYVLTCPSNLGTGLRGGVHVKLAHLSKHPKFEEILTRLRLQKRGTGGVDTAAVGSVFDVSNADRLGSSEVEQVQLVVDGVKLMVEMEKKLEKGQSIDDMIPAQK
UniProt Q5T1J5: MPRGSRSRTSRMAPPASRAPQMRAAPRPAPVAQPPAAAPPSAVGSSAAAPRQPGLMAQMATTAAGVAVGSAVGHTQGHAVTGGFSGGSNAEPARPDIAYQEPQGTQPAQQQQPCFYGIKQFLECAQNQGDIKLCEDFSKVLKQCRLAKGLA
UniProt Q9H444: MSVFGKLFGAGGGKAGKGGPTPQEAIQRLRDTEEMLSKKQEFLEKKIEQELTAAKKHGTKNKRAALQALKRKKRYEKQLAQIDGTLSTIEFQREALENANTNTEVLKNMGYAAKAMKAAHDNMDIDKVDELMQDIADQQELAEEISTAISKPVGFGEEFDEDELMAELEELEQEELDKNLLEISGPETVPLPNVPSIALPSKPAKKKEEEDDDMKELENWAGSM
UniProt P26374: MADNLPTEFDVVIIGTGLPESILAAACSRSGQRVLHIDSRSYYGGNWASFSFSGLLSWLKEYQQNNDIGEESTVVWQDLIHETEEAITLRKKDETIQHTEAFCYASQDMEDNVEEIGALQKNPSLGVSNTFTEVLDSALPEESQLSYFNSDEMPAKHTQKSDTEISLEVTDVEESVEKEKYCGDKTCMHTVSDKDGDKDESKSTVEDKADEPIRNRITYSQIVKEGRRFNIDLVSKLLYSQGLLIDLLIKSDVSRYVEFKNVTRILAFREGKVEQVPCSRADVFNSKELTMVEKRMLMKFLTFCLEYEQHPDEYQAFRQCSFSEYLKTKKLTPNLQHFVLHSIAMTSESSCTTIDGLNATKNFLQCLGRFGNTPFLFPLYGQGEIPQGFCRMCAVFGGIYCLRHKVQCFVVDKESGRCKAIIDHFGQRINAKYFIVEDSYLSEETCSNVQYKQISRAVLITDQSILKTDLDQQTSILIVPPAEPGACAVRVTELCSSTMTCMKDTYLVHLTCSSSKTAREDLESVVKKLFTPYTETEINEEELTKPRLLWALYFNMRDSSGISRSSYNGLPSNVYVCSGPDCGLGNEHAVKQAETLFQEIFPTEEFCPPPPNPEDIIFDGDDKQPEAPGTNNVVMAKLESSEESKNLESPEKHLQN
UniProt Q13112, whole entry, looked up: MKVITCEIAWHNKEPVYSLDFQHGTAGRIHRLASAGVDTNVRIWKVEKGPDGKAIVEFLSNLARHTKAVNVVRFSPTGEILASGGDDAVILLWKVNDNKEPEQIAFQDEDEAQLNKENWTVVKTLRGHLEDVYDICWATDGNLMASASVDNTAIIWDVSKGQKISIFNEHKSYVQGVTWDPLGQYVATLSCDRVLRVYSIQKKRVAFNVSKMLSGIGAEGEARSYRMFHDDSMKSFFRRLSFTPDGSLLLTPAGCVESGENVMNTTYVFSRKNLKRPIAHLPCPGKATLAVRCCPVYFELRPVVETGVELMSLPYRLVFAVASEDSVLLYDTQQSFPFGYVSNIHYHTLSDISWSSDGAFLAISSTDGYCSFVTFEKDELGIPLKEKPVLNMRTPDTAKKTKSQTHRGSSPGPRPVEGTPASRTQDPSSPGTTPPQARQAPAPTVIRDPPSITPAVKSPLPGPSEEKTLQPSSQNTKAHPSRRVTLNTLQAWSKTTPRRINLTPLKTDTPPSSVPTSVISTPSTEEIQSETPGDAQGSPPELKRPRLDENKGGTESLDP

What was measured:
Assay in all cases: log2 fold change, soluble protein after heating vs DMSO (PISA); higher = thermal stabilisation; K562 lysate, 10 uM; active = over 0.2 and 3.5 SD of the protein, either way, in both replicates (recomputed)
[1] = compound: C#Cc1cccc(Nc2ncnc3cc(OCCOC)c(OCCOC)cc23)c1 [erlotinib]
How it was run: (§1)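 Following dounce homogenisation of K562 pellets in PBS pH 7.4 with 1 mM MgCl2, crude extract at 1 mg/mL protein was incubated for 30 min with 10 μM compound. Aliquots were then heated for 3 min over 48°C-58°C and pooled, NP-40 was added to 0.5% at 4°C, and soluble protein was recovered as the supernatant at 21,000xg for 90 min. Channel-sum-equalised TMTpro 16plex LC-MS/MS quantified this protein. Each value, from duplicates, is a log-two fold change in thermal stability relative to solvent controls.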

[2] = compound: C/C(=N\NC(=O)C1=CC(=CC=C1)S(=O)(=O)N2CCOCC2)/C3=C(C=CC(=C3)Cl)O
How it was run: as §1

[3] = compound: C1=CC(=CC=C1C2=NC3=C(N2)C=C(C=C3)C(=O)N)OC4=CC=C(C=C4)Cl
How it was run: as §1

[4] = compound: C1=CC2=C(C=CC(=C2)/C=C\3/C(=O)NC(=NCC4=CC=CS4)S3)N=C1
How it was run: as §1

[5] = compound: C1=CC2=NC=CN=C2C=C1/C=C/3\C(=O)NC(=O)S3
How it was run: as §1

[6] = compound: C1=CC=C(C=C1)C2=NC(=C(N2)C3=CC=NC=C3)C4=CC(=C(C=C4)Cl)O
How it was run: as §1

[7] = compound: C1=CC=C2C(=C1)C3=NNC4=CC=CC(=C43)C2=O
How it was run: as §1

[8] = compound: C1CCN(C1)C(=O)NC2=CC=CC(=C2)NC3=NC=C(C(=N3)NCCC4=CN=CN4)Br
How it was run: as §1

[9] = compound: C1CN(CCC1(CC2=CC=C(C=C2)Cl)N)C3=NC=NC4=C3C=CN4
How it was run: as §1

[10] = compound: C1COCCN1CCN2C3=CC=CC=C3N=C2NC(=O)C4=CC(=CC=C4)[N+](=O)[O-] [IRAK-1-4 Inhibitor I]
How it was run: as §1

[11] = compound: C=CC(=O)N1CCC[C@@H](n2nc(-c3ccc(Oc4ccccc4)cc3)c3c(N)ncnc32)C1 [ibrutinib]
How it was run: as §1

[12] = compound: CC(=O)c1cnc2ccc(-c3cc(Cl)c(O)c(Cl)c3)nc2c1N[C@H]1CC[C@H](CN(C)C)CC1
How it was run: as §1

[13] = compound: CC(C)(C)Cn1c(N)nc2ccc(-c3[nH]c(C(C)(C)C)nc3-c3ccc(F)cc3)nc21 [ralimetinib]
How it was run: as §1

[14] = compound: CC(C)(O)CC(=O)NCCn1ccc2ncnc(Nc3ccc(Oc4cccc(C(F)(F)F)c4)c(Cl)c3)c21
How it was run: as §1

[15] = compound: CC(C)C1=C2N=C(C=C(N2N=C1)NCC3=CC=CC=C3)NCCCCCCN
How it was run: as §1

[16] = compound: CC1=C(C(CC(=O)N1)C2=CC=C(C=C2)C(F)(F)F)C(=O)NC3=C(C=C4C(=C3)C=NN4)F
How it was run: as §1

[17] = compound: CC1=C(C2=C(C=C1)C(=O)C3=CC=CC=C3N2CCCN)C
How it was run: as §1

[18] = compound: CC1=C(C=C(C=C1)NC(=O)C2=CC(=CC=C2)C(C)(C)C#N)NC3=CC4=C(C=C3)N=CN(C4=O)C
How it was run: as §1

[19] = compound: CC1=C(C=C(C=C1)NC(=O)C2=CC(=CC=C2)N(C)C)NC(=O)C3=CC=C(C=C3)O
How it was run: as §1

[20] = compound: CC1=CC=C(C=C1)SC2=C3C=C(SC3=CN=C2)C(=O)N
How it was run: as §1

Measured: log2 fold change

CHMP1A (UniProt Q9HD42)
inactive: [1] -0.021 | [2] -0.014 | [3] 0.028 | [4] 0.002 | [5] -0.011 | [6] -0.023 | [7] -0.006 | [8] 0.002 | [9] -0.02 | [10] -0.007 | [11] -0.01 | [12] -0.004 | [13] 0.012 | [14] -0.041 | [15] 0.008 | [16] 0.025 | [17] -0.015 | [18] -0.009 | [19] 0.027 | [20] -0.021

CMIP (UniProt Q8IY22)
inactive: [1] 0.003 | [2] 0.05 | [3] -0.008 | [4] 0.055 | [5] 0.035 | [6] 0.023 | [7] -0.067 | [8] -0.001 | [9] -0.023 | [10] -0.011 | [11] 0.057 | [12] 0.024 | [13] 0 | [14] 0.004 | [15] -0.011 | [16] 0.001 | [17] -0.021 | [18] 0 | [19] 0.029 | [20] 0.004

CHP1 (UniProt Q99653)
inactive: [1] 0.027 | [2] -0.085 | [3] 0.021 | [4] 0.023 | [5] -0.106 | [6] -0.015 | [7] -0.047 | [8] 0.015 | [9] 0.024 | [10] 0.005 | [11] 0.084 | [12] -0.011 | [13] -0.01 | [14] -0.052 | [15] -0.003 | [16] 0.002 | [17] -0.028 | [18] -0.008 | [19] 0.024 | [20] -0.01

CHERP (UniProt Q8IWX8)
inactive: [1] 0.02 | [2] 0.017 | [3] -0.036 | [4] -0.012 | [5] -0.032 | [6] 0.013 | [7] -0.005 | [8] 0.007 | [9] 0.018 | [10] -0.009 | [11] 0.037 | [12] -0.002 | [13] 0.038 | [14] -0.029 | [15] -0.031 | [16] -0.026 | [17] 0.002 | [18] -0.03 | [19] 0.02 | [20] 0.014

CHKA (UniProt P35790)
inactive: [1] -0.071 | [2] -0.011 | [3] 0.021 | [4] -0.003 | [5] -0.1 | [6] -0.081 | [7] 0.008 | [8] 0.007 | [9] 0.009 | [10] -0.037 | [11] 0.008 | [12] 0.083 | [13] -0.008 | [14] -0.012 | [15] -0.058 | [16] -0.058 | [17] 0.02 | [18] 0.05 | [19] 0.001 | [20] -0.047

Reprinted at random: 2 records from the list, in no set order.
CHMP1A (UniProt Q9HD42)
inactive: [1] -0.021 | [2] -0.014 | [3] 0.028 | [4] 0.002 | [5] -0.011 | [6] -0.023 | [7] -0.006 | [8] 0.002 | [9] -0.02 | [10] -0.007 | [11] -0.01 | [12] -0.004 | [13] 0.012 | [14] -0.041 | [15] 0.008 | [16] 0.025 | [17] -0.015 | [18] -0.009 | [19] 0.027 | [20] -0.021

CHP1 (UniProt Q99653)
inactive: [1] 0.027 | [2] -0.085 | [3] 0.021 | [4] 0.023 | [5] -0.106 | [6] -0.015 | [7] -0.047 | [8] 0.015 | [9] 0.024 | [10] 0.005 | [11] 0.084 | [12] -0.011 | [13] -0.01 | [14] -0.052 | [15] -0.003 | [16] 0.002 | [17] -0.028 | [18] -0.008 | [19] 0.024 | [20] -0.01

Next part:

CKMT1A (UniProt P12532)
inactive: [1] -0.053 | [2] -0.098 | [3] -0.005 | [4] -0.013 | [5] -0.044 | [6] -0.042 | [7] -0.018 | [8] -0.015 | [9] 0.008 | [10] 0.022 | [11] 0.032 | [12] 0.019 | [13] -0.011 | [14] -0.028 | [15] -0.032 | [16] -0.014 | [17] -0.058 | [18] 0.018 | [19] 0.032 | [20] -0.037

CIC (UniProt I3L2J0)
inactive: [1] 0.013 | [2] -0.248 | [3] 0.079 | [4] 0.122 | [5] 0.027 | [6] -0.047 | [7] -0.062 | [8] 0.005 | [9] -0.04 | [10] 0.04 | [11] 0.036 | [12] 0.044 | [13] 0.055 | [14] -0.083 | [15] 0.013 | [16] 0.054 | [17] -0.044 | [18] 0.029 | [19] 0.02 | [20] 0.028

CIAPIN1 (UniProt Q6FI81)
inactive: [1] 0.021 | [2] 0.043 | [3] 0.008 | [4] -0.01 | [5] 0.016 | [6] 0.016 | [7] 0.026 | [8] -0.004 | [9] -0.004 | [10] 0.012 | [11] 0.018 | [12] 0.002 | [13] -0.036 | [14] -0.007 | [15] 0.002 | [16] -0.039 | [17] 0.007 | [18] 0.01 | [19] -0.014 | [20] -0.016

CKM (UniProt P06732)
inactive: [1] 0.034 | [2] -0.167 | [3] 0.003 | [4] 0.023 | [5] 0.058 | [6] -0.024 | [7] 0 | [8] -0.017 | [9] 0.038 | [10] 0.044 | [11] -0.002 | [12] 0.056 | [13] 0.046 | [14] -0.076 | [15] 0.002 | [16] -0.001 | [17] -0.029 | [18] 0.044 | [19] 0.005 | [20] -0.02

CHAF1A (UniProt Q13111)
inactive: [1] -0.017 | [2] -0.089 | [3] -0.005 | [4] -0.004 | [5] -0.005 | [6] 0.009 | [7] -0.008 | [8] -0.025 | [9] 0.036 | [10] -0.011 | [11] 0.026 | [12] -0.017 | [13] 0.011 | [14] 0.018 | [15] 0.032 | [16] 0.049 | [17] -0.043 | [18] 0.001 | [19] 0.001 | [20] 0.012

CIAO1 (UniProt O76071)
inactive: [1] 0.002 | [2] 0.023 | [3] 0.001 | [4] -0.025 | [5] -0.012 | [6] 0.016 | [7] -0.007 | [8] 0.002 | [9] 0.005 | [10] 0.009 | [11] 0.01 | [12] -0.002 | [13] -0.005 | [14] -0.024 | [15] 0.013 | [16] 0.041 | [17] -0.016 | [18] 0.015 | [19] -0.061 | [20] -0.01

CHD7 (UniProt Q9P2D1)
inactive: [1] -0.035 | [2] -0.072 | [3] -0.036 | [4] -0.028 | [5] 0.055 | [6] -0.008 | [7] 0.054 | [8] -0.024 | [9] 0.02 | [10] 0 | [11] 0.079 | [12] 0.002 | [13] 0.082 | [14] -0.063 | [15] 0.009 | [16] 0.036 | [17] -0.044 | [18] 0.074 | [19] 0.033 | [20] 0.048

CHCHD2P9 (UniProt Q5T1J5)
inactive: [1] 0.02 | [2] -0.536 | [3] 0.07 | [4] -0.062 | [5] 0.001 | [6] 0.028 | [7] -0.107 | [8] -0.049 | [9] 0.088 | [10] 0.068 | [11] 0.027 | [12] -0.013 | [13] -0.041 | [14] 0.026 | [15] 0.077 | [16] 0.064 | [17] -0.004 | [18] -0.099 | [19] -0.038 | [20] 0.035

CHMP4B (UniProt Q9H444)
inactive: [1] -0.04 | [2] -0.036 | [3] -0.022 | [4] -0.021 | [5] -0.055 | [6] 0.039 | [7] -0.011 | [8] 0.03 | [9] -0.01 | [10] -0.03 | [11] -0.004 | [12] -0.015 | [13] -0.001 | [14] 0.051 | [15] -0.041 | [16] -0.01 | [17] 0.009 | [18] -0.029 | [19] -0.008 | [20] -0.013

CHML (UniProt P26374)
inactive: [1] -0.03 | [2] -0.031 | [3] 0.028 | [4] -0.026 | [5] -0.013 | [6] -0.021 | [7] -0.004 | [8] -0.033 | [9] -0.001 | [10] -0.012 | [11] -0.029 | [12] -0.017 | [13] -0.008 | [14] -0.004 | [15] -0.009 | [16] -0.012 | [17] 0 | [18] -0.003 | [19] -0.017 | [20] -0.006

CHAF1B (UniProt Q13112)
inactive: [1] -0.033 | [2] -0.079 | [3] 0.039 | [4] -0.028 | [5] -0.019 | [6] -0.01 | [7] -0.009 | [8] -0.01 | [9] 0.011 | [10] 0.032 | [11] -0.007 | [12] 0.001 | [13] -0.002 | [14] 0.006 | [15] 0.007 | [16] 0.01 | [17] -0.004 | [18] 0.047 | [19] 0 | [20] -0.011
